Experimental data reported in article PMC11904943.
Results are given in words; binding and its absence hold for the method and conditions named. Binding seen in cells or lysates may run through a third protein. These calls come from enrichment with a bait or labelling near it, and not all partners need be listed. Where a sequence is shown, tags or fusion partners need not be part of it.

Amino acid sequences for entries named in this document (tags omitted).
UniProt Q5VTR2: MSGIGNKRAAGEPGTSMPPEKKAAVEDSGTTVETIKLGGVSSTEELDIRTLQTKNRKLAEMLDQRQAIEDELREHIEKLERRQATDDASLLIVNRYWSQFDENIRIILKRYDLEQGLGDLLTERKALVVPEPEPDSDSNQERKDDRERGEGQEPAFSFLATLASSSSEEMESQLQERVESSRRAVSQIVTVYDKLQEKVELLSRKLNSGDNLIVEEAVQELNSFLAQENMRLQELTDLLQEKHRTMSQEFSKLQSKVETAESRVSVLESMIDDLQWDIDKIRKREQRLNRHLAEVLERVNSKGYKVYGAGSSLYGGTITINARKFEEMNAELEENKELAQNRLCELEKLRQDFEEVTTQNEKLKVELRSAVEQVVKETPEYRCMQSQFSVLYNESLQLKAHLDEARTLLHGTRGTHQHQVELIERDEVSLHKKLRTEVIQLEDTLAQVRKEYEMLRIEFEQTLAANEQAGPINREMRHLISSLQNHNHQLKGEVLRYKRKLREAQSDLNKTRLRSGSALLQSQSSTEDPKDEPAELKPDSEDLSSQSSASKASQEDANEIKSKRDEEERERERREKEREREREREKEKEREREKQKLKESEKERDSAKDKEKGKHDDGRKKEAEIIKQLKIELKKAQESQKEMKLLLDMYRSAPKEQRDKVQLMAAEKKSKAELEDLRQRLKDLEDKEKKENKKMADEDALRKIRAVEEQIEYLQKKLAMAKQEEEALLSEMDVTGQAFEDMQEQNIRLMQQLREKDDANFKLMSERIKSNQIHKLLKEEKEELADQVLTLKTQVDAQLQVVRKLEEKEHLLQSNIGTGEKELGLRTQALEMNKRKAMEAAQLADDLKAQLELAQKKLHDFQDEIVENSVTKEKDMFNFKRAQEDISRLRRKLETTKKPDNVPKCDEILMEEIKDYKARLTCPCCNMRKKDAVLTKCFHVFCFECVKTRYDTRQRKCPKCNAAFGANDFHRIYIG

Target: T1, Flag-eGFP-WAC (WW domain-containing adaptor with coiled-coil) (human) (UniProt Q9BTA9)
T1 sequence: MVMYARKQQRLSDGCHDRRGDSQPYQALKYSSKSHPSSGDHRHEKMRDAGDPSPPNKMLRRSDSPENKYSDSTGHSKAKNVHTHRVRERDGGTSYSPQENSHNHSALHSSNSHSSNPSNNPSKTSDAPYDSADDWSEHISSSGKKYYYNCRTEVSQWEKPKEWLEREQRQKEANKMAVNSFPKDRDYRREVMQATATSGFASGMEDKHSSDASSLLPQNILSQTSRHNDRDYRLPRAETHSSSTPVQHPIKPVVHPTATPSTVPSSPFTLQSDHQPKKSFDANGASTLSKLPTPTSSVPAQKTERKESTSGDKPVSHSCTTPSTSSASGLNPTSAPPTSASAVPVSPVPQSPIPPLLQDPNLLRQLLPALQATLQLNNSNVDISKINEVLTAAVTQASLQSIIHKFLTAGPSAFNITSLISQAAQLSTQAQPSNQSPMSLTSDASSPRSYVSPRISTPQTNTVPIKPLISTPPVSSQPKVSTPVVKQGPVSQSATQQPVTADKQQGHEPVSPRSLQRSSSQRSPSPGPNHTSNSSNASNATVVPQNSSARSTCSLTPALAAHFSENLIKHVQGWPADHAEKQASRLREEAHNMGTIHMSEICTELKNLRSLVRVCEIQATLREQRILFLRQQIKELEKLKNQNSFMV
Test: affinity purification with mass spectrometry; HEK293T cells transfected with Flag-eGFP-WAC or Flag-eGFP; lysates immunoprecipitated with anti-DYKDDDDK G1 affinity resin; LC-MS/MS

- binding: binds
Substance: RNF20 (from UniProt Q5VTR2 1-975)
